Among the data in article PMC6389977 are binding values, retold here.

For the assay, the target named is full-length DENV2 NS3 protein (bait, pGBKT7-NS3) (dengue virus 2, New Guinea C (NGC) strain) (UniProt P14340). In words: two-hybrid.

No constants are given. Whether binding was seen depends on the method and setting. Some entries that bind do so weakly or less than the wild type.

B1: glioblastoma amplified sequence (protein, UniProt O75323-1 1-286)
chain: MAARVLRARGAAWAGGLLQRAAPCSLLPRLRTWTSSSNRSREDSWLKSLFVRKVDPRKDAHSNLLAKKETSNLYKLQFHNVKPECLEAYNKICQEVLPKIHEDKHYPCTLVGTWNTWYGEQDQAVHLWRYEGGYPALTEVMNKLRENKEFLEFRKARSDMLLSRKNQLLLEFSFWNEPVPRSGPNIYELRSYQLRPGTMIEWGNYWARAIRFRQDGNEAVGGFFSQIGQLYMVHHLWAYRDLQTREDIRNAAWHKHGWEELVYYTVPLIQEMESRIMIPLKTSPLQ
B1: the binding entry was “binds”.
